Experimental data taken from PubChem BioAssay AID2685 (National Center for Advancing Translational Sciences (NCATS), 2010).
Hit rate of the full screen: of about 320,000 compounds, about 2,100 (0.66%) were called active. The inconclusive results got no clear call from the source; some entries with a clear call stand among them for comparison. The call rests on the fitted dose curve; in most records, active means well fitted inhibition curve with a large enough effect in the signal ratio, with a control signal flat (not every such curve was filed as active); inconclusive means small, poorly fitted or top-dose-only effect, or effect the other way, or a change in a side signal; inactive means flat fitted curve, though single readings scatter; the % refers to the signal ratio. Potencies beside an inconclusive call are fits to weak or partial responses and may not hold up.
On the % scale 0 is the no-effect control and ±100 the full control effect; potency means the concentration at half of the fitted maximal effect.

Experiment: qHTS Assay for Lipid Storage Modulators in Drosophila S3 Cells
Conditions: BODIPY lipid droplet fluorescence, 18-24 h, cells fed with added oleic acid; lipid storage change, negative = inhibition: at 46.1 µM (top of the series) unless noted
Method in brief: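 Laser-scanning cytometry quantifies lipid droplet accumulation (500–530 nm total intensity; droplet/cell object ratio) in oleic acid-fed (400 uM added) Drosophila S3 cells treated with a concentration series. 20 uM Triacsin C defined 100% inhibition.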
With `Cc1ccnc(NC(c2ccsc2)c2ccc3ccc(C)nc3c2O)c1` (stereo not given) the lipid storage change, negative = inhibition was inconclusive: -3.08%. With `O=c1[nH]c(=O)n([C@H]2C[C@H](O)[C@@H](CO)O2)cc1Br` the Potency was inconclusive: 0.0046 µM [activator, full curve, poor fit]. With `CCOC(=O)c1cccc(NC(=O)CCn2nnc3ccccc32)c1` the Potency was inconclusive: 25.9 µM [activator, single point]. In the case of `Cc1nc(SCC(=O)Nc2nc3ccccc3s2)c(C#N)c(C)c1C`, the Potency is reported as inconclusive: 29.1 µM [falling, single point]. For `CSc1ccccc1NC(=O)CN(C)C(C)C(=O)NC(=O)NC1CCCCC1` (stereo not given), the lipid storage change, negative = inhibition was “inconclusive”. In the case of `Cn1c(=O)c2c(SCC(=O)Nc3ccccc3F)nc(C3CC3)nc2n(C)c1=O`, the Potency is reported as inconclusive: 4.61 µM [falling, single point]. In the case of `COC(=O)[C@]1(Cc2ccccc2)N[C@H](c2ccc(-c3ccccc3)cc2)[C@@H]2C(=O)N(C)C(=O)[C@@H]21`, the lipid storage change, negative = inhibition is reported as inconclusive: -75.2%. In the case of `NS(=O)(=O)c1ccc(CCNC(=O)c2cccc3ccccc23)cc1`, the Potency is reported as inconclusive: 0.13 µM [activator, full curve, poor fit]. With `CCOC(=O)C1CCCN(C(=O)CSc2ccccc2)C1` (stereo not given) the lipid storage change, negative = inhibition was inconclusive: -23.8%. With `CCCCN(C(=O)CSc1n[nH]c(-c2ccc(C)cc2)n1)c1c(N)n(CCCC)c(=O)[nH]c1=O` the lipid storage change, negative = inhibition was inconclusive: 7.43%. With `O=C(NC1CCCCC1)c1cc(Cl)nc2ccccc12` the Potency was inconclusive: 2.59 µM [falling, partial curve]. For `O=C(CCC(=O)Nc1ccccc1)NNC(=O)CCc1ccccc1`, the lipid storage change, negative = inhibition was inconclusive: -7.78%. With `O=C(NCCOc1ccccc1Cl)c1cc(F)c(F)cc1Cl` the lipid storage change, negative = inhibition was inconclusive: 13.9%. For `COc1ccc(Nc2cc(Nc3ccc(OC)cc3)ncn2)cc1`, the Potency was inconclusive: 7.31 µM [activator, partial curve]. For `COc1cc(/C=C/C(=O)OCC(=O)NC(=O)NC(C)(C)C)ccc1OCC#N`, the lipid storage change, negative = inhibition was inconclusive: 14.9%. With `COc1ccc2c(c1)sc1nc(-c3ccccc3)cn12` the lipid storage change, negative = inhibition was inconclusive: 10.6%. With `O=C(NCCN1C(=O)S/C(=C\c2ccccc2F)C1=O)C1CC(=O)N(Cc2ccccc2)C1` (stereo not given) the lipid storage change, negative = inhibition was inconclusive: -82.2%. In the case of `COc1ccc(OC)c(NC(=O)c2c3c(nc4ccccc24)CCC3)c1`, the lipid storage change, negative = inhibition is reported as inconclusive: 36.8%. With `O=C(Nc1ccccc1C(F)(F)F)C(O)(c1ccccc1)C1CCCCC1` (stereo not given) the lipid storage change, negative = inhibition was inconclusive: 15.9%. In the case of `Cc1cccc(NC(=O)c2cc(-c3ccccn3)nc3ccccc23)c1C`, the lipid storage change, negative = inhibition is reported as inconclusive: 102%. With `Cc1ccc(C)c(OCC(=O)Nc2ccccc2N2CCCC2)c1` the Potency was inconclusive: 29.1 µM [activator, single point]. For `O=C(NCC(c1ccco1)N1CCCC1)c1cccc(S(=O)(=O)N2CCOCC2)c1` (stereo not given), the Potency was inconclusive: 0.731 µM [falling, full curve, poor fit]. For `CC(=O)NCCc1c(C)n(Cc2ccccc2)c2ccccc12`, the Potency was inconclusive: 6.51 µM [falling, single point]. For `C/C(CC(=O)NCc1ccco1)=N\NC(=O)CC#N`, the lipid storage change, negative = inhibition was inconclusive: -24.1%. In the case of `CCOC(=O)c1cc(NC(=O)Cc2ccc(S(=O)(=O)N3CCOCC3)s2)cc(C(=O)OCC)c1`, the Potency is reported as active: 1.16 µM. With `N/C(=N\OC(=O)c1ccccc1F)c1cccc([N+](=O)[O-])c1` the lipid storage change, negative = inhibition was inconclusive: 30.2%. For `CCOCCn1c(=O)c2c(nc3n2CCN3c2ccc(C)c(C)c2)n(C)c1=O`, the lipid storage change, negative = inhibition was inconclusive: 15.8%. In the case of `CCOc1cc(C2C(C#N)=C(N)Oc3n[nH]c(-c4ccccc4)c32)ccc1O` (stereo not given), the Potency is reported as inconclusive: 10.3 µM [falling, partial curve]. For `CCOC(=O)c1ccc(NS(=O)(=O)c2ccc(Cl)nc2)cc1`, the lipid storage change, negative = inhibition was inconclusive: -34%. In the case of `C=CCn1c(=NC(=O)c2ccco2)sc2cc(C(=O)OCC)ccc21`, the Potency is reported as inconclusive: 14.6 µM [activator, partial curve, poor fit]. For `COc1ccc(NC(=O)CN(C)S(=O)(=O)c2ccc3c(c2)c(=O)n(C)c(=O)n3C)cc1`, the lipid storage change, negative = inhibition was inconclusive: 2.89%. For `CS(=O)(=O)c1ccc(C(=O)NCc2ccc(F)cc2)cc1`, the “lipid storage change, negative = inhibition” value was inactive: 1.05%. In the case of `CCOC(=O)[C@H]1[C@H]2COc3ccc(Cl)cc3[C@@H]2N2C(=O)CN(Cc3ccc(C)cc3)C(=O)[C@@]12C`, the lipid storage change, negative = inhibition is reported as inconclusive: 15.5%. In the case of `CC(=O)Nc1ccc(-n2c(C)nc(=O)c(-c3ccccc3)c2C)cc1`, the Potency is reported as active: 13 µM. For `Cc1ccc(S(=O)(=O)N2CCC(NC(=O)c3cccc(C)c3)CC2)cc1`, the lipid storage change, negative = inhibition was inconclusive: 6.62%. In the case of `CCOC(=O)c1oc2ccccc2c1COC(=O)C(C)NC(=O)c1ccco1` (stereo not given), the lipid storage change, negative = inhibition is reported as inconclusive: -16.2%. In the case of `Cc1c(Cl)c([N+](=O)[O-])nn1CCCC(=O)Nc1c(Cl)cccc1Cl`, the Potency is reported as inconclusive: 18.4 µM [activator, single point]. For `CCCCCCc1c(C)c2ccc(OCC(=O)N3CCC[C@H]3C(=O)O)c(C)c2oc1=O`, the lipid storage change, negative = inhibition was inconclusive: 27.6%. With `CC(OC(=O)/C=C/c1ccccc1)C(=O)Nc1ccc(C(N)=O)cc1` (stereo not given) the lipid storage change, negative = inhibition was inconclusive: 30.5%. In the case of `COc1ccc(C(=O)O)cc1NC(=S)NC(=O)Cc1ccc(Cl)cc1`, the Potency is reported as inconclusive: 10.3 µM [falling, partial curve, poor fit]. For `CCn1c(SCC(=O)NCc2ccc3c(c2)OCO3)nnc1-c1c[nH]c2ccccc12`, the Potency was inconclusive: 20.6 µM [falling, partial curve]. For `Cc1cccc(NC(=O)CNC(=O)c2cccc(S(=O)(=O)NCc3cccs3)c2)c1C`, the lipid storage change, negative = inhibition was inconclusive: 11.1%. In the case of `CCOC(=O)c1csc(N)n1`, the lipid storage change, negative = inhibition is reported as inconclusive: -25.5%. In the case of `Cc1cc(NC(=S)N(Cc2ccc(Cl)cc2)Cc2ccc(C(=O)O)cc2)ccc1Cl`, the lipid storage change, negative = inhibition is reported as inconclusive: 4.74%. In the case of `COc1ccc(N2CCN(CCCn3c(=S)[nH]c4ncccc4c3=O)CC2)cc1`, the lipid storage change, negative = inhibition is reported as inconclusive: 1.36%. In the case of `CCC(C)c1c(O)nc(SCC(=O)Nc2ccccc2)[nH]c1=O` (stereo not given), the lipid storage change, negative = inhibition is reported as inconclusive: -17.2%. In the case of `Cc1ccc(C(=S)NCS(=O)(=O)c2ccc(C)cc2)cc1`, the Potency is reported as inconclusive: 0.092 µM [activator, full curve, poor fit]. With `O=C(Cn1c(NCCCO)nc2ccccc21)c1ccc(F)cc1` the “outcome” value was “inactive [at 46.1 µM]”. In the case of `Cc1ccc(S(=O)(=O)N2CCCC2C(=O)n2nc(C)cc2C)cc1` (stereo not given), the lipid storage change, negative = inhibition is reported as inconclusive: -0.0893%. In the case of `CCN(CC)c1ccc(NC(=O)c2ccc(Br)o2)cc1`, the lipid storage change, negative = inhibition is reported as inconclusive: 11.8%. In the case of `O=C(C1CCC(=O)N(C2CC2)C1)N1CCC(Oc2ccccc2F)CC1` (stereo not given), the Potency is reported as inconclusive: 3.66 µM [activator, full curve]. In the case of `O=c1c2ccccc2[nH]c(=S)n1CCCN1CCN(C2CCCCC2)CC1`, the lipid storage change, negative = inhibition is reported as inconclusive: 35.9%. With `O=C(CNC(=O)c1ccccc1Cl)Nc1ccncc1` the Potency was inconclusive: 0.0046 µM [activator, full curve, poor fit]. For `CCCCn1c(N)c(N(CCOC)C(=O)C2CCCN(C(=O)c3ccc(Cl)cc3)C2)c(=O)[nH]c1=O` (stereo not given), the lipid storage change, negative = inhibition was inconclusive: -58.7% [at 0.0737 µM]. For `CCc1cccc(CC)c1NC(=S)NCCc1ccc(O)c(O)c1`, the lipid storage change, negative = inhibition was inconclusive: 14.4%. With `Cc1cc(C)cc(S(=O)(=O)c2cn(C)c3cc(N4CCN(C)CC4)c(F)cc3c2=O)c1` the Potency was inconclusive: 18.4 µM [activator, partial curve]. In the case of `Cc1cccc(N2CCN(c3ccc4cc(S(=O)(=O)N5CCCCC5)ccc4n3)CC2C)c1` (stereo not given), the lipid storage change, negative = inhibition is reported as inconclusive: 18.6%. For `COc1ccc(C(c2nnnn2CCc2ccccc2)N2CCN(C3CCCC3)CC2)cc1OC` (stereo not given), the Potency was inconclusive: 0.103 µM [falling, full curve, poor fit]. For `Cc1cccc(C)c1OCc1n[nH]c(=S)n1-c1ccccc1`, the lipid storage change, negative = inhibition was inconclusive: 40.6%. With `CN(C)S(=O)(=O)N1CCC(C(=O)O)(c2ccccc2)CC1` the Potency was inconclusive: 6.51 µM [falling, single point]. In the case of `Cc1c(C(=O)NNC(=O)c2csc(N3CCOCC3)n2)cccc1[N+](=O)[O-]`, the lipid storage change, negative = inhibition is reported as inconclusive: 3.79%. For `O=C(OCC(=O)N1CCCC1)c1ccco1`, the lipid storage change, negative = inhibition was inconclusive: -0.241%. In the case of `S=c1[nH]nc(COc2ccccc2)n1/N=C/c1ccc(Cl)cc1Cl`, the lipid storage change, negative = inhibition is reported as inconclusive: -6.9%. With `O=C(CCc1ccccc1)Nc1cccnc1Cl` the lipid storage change, negative = inhibition was inconclusive: 10.1%. For `CCCCn1c(N)c(N(CC(C)C)C(=O)C2CCN(C(=O)c3ccc(F)cc3)CC2)c(=O)[nH]c1=O`, the Potency was inconclusive: 0.58 µM [falling, single point]. For `Cn1c(=O)[nH]c(=O)c2c1nc(Br)n2CC(O)COc1ccccc1` (stereo not given), the lipid storage change, negative = inhibition was inconclusive: -38.4%. With `CCCc1cc(=O)n2[nH]c(C)c(-c3ccccc3)c2n1` the lipid storage change, negative = inhibition was inconclusive: 1.86%. In the case of `CC(=O)c1cn(CC(=O)NCc2ccco2)c2ccccc12`, the lipid storage change, negative = inhibition is reported as inconclusive: -14.9%. For `CCOc1ccccc1N1CCN(CC(=O)Nc2nc(C)c(C(=O)N(C)C)s2)CC1`, the lipid storage change, negative = inhibition was inconclusive: 22.2%. With `COCCCNC(=S)NNC(=O)c1ccc2c(c1)OCO2` the lipid storage change, negative = inhibition was inconclusive: 2.41%. In the case of `O=C(O)c1ccc(Nc2cnc3ccccc3n2)cc1`, the Potency is reported as inconclusive: 4.11 µM [falling, single point]. For `O=C1C(Cl)=C(Nc2ccccc2O)C(=O)N1c1ccccc1`, the lipid storage change, negative = inhibition was inconclusive: -43.5%. With `Cc1ccc(NC(=O)CSc2nc3ccccc3c(=O)n2CCCC(=O)NCC2CCCO2)cc1` (stereo not given) the Potency was inconclusive: 6.51 µM [falling, single point]. In the case of `COc1ccccc1CN(C)C(=O)c1sccc1-c1ccccc1`, the lipid storage change, negative = inhibition is reported as inconclusive: -24.6%. In the case of `CCc1ccc(C(=O)CSc2n[nH]c(C)n2)cc1`, the lipid storage change, negative = inhibition is reported as inconclusive: 19.1%.
